In paper PMC5760199:

Assays:
Experiment in all cases: fluorescence polarization
Settings in all cases: 20 mM Tris pH 7.5, 150 mM NaCl, 1 mM DTT, 0.05% Tween 20, 25 C, 0.1 nM labelled RNA, recombinant protein, label: 5' Atto532
[1] = tested on: CPSF160FL + WDR33 M1-K410 + CPSF30 ZF1
[2] = tested on: CPSF160FL + WDR33 M1-K410
[3] = tested on: CPSF160FL + WDR33 M1-K410 + CPSF30 ZF1-2

In the case of “CACACAAUAAAGGCAA [L3 PAS RNA wild-type (AAUAAA)]”, the pKd [1] was less than 6.70, the pKd ([2]; no CPSF30) was less than 6.70 and the pKd [3] was less than 6.70.
“CACACAAGAAAGGCAA [L3 PAS RNA mutant (AAGAAA)]” was tested, and the pKd ([1]; n.m. (Kd >>1 uM)) was less than 6.00, the pKd ([2]; no CPSF30, n.m. (Kd >>1 uM)) was less than 6.00 and the pKd ([3]; n.m. (Kd >>1 uM)) was less than 6.00.

pKd: −log10 of the molar value. For part of these data: The exact form of at least one protein or probe is not confirmed.
